± gives the standard deviation of the averaged measurements. This is a selection; strong and weak results do not stand in their true shares.
Compound: Nc1ncnc2c1ncn2[C@@H]1O[C@H](COP(=O)(O)OP(=O)(O)OP(=O)(O)O)[C@@H](O)[C@H]1O [adenosine triphosphate]
Experiment: NP40-soluble protein abundance relative to vehicle (solubility fold change) (ratio); higher = more soluble protein in presence of ATP
How it was run: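 Jurkat crude lysate prepared with a Dounce homogeniser was treated at eight concentrations spanning 0.1 to 10 mM, 10 min at room temperature then 3 min at 37 °C. Solubilisation with 0.8% NP40 and benzonase and ultracentrifugation preceded TMT labelling of the supernatant for LC-MS/MS. Fold change against the detergent-processed vehicle was determined per replicate from vsn-normalised intensities, across three independent experiments.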

Amino acid sequences for entries named in this document (tags omitted). A change or cut given only in a name is not applied to a line headed by its entry.
UniProt Q9BQP7: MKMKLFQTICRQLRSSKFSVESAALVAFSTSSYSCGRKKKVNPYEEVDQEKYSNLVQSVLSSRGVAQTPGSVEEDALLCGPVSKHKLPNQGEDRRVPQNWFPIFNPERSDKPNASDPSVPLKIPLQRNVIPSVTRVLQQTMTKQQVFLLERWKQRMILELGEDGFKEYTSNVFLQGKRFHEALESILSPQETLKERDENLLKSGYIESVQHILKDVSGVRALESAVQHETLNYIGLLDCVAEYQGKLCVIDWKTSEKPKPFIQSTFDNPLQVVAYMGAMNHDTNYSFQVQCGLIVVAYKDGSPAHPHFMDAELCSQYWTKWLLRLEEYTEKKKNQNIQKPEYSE
UniProt Q9BW83: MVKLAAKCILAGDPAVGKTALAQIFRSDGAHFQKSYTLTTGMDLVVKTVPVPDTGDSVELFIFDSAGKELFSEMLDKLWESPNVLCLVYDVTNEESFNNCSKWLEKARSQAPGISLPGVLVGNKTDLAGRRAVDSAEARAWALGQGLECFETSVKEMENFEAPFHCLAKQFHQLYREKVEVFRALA
UniProt Q9BU61: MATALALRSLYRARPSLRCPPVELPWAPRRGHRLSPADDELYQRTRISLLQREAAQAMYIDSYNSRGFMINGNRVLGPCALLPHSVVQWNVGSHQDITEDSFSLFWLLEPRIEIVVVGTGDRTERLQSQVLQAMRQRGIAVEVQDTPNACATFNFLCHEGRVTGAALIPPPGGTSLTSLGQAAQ
UniProt Q9BV57: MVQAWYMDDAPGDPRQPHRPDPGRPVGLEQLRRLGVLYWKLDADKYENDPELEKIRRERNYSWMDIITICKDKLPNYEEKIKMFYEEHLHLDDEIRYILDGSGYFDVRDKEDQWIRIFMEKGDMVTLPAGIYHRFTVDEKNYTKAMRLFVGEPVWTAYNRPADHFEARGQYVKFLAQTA
UniProt Q99766: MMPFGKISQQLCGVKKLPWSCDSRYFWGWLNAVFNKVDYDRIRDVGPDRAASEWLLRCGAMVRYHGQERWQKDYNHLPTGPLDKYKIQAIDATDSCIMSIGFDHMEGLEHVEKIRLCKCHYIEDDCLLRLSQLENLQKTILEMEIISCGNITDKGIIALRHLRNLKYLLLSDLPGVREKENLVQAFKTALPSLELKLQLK
UniProt Q99638: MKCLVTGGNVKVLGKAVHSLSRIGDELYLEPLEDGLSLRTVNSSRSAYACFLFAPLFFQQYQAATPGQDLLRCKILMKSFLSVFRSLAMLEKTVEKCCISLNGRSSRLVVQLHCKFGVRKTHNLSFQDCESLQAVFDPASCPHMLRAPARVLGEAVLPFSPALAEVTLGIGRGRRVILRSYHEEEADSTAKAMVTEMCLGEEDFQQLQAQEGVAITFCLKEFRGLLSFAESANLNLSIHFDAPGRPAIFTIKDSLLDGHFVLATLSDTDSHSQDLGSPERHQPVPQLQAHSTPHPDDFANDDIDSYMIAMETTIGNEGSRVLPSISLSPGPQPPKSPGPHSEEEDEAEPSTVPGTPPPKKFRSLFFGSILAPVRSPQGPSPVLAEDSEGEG
UniProt Q9BV20: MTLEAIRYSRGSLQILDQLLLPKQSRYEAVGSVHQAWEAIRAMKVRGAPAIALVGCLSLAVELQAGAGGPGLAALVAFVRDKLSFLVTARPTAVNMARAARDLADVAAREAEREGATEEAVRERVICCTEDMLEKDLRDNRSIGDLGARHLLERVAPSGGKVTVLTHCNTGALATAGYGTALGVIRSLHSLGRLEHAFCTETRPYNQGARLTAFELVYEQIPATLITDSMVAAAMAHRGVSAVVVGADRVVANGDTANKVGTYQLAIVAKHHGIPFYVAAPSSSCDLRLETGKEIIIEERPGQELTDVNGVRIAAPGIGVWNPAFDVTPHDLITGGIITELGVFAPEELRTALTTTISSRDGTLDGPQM
UniProt Q99704: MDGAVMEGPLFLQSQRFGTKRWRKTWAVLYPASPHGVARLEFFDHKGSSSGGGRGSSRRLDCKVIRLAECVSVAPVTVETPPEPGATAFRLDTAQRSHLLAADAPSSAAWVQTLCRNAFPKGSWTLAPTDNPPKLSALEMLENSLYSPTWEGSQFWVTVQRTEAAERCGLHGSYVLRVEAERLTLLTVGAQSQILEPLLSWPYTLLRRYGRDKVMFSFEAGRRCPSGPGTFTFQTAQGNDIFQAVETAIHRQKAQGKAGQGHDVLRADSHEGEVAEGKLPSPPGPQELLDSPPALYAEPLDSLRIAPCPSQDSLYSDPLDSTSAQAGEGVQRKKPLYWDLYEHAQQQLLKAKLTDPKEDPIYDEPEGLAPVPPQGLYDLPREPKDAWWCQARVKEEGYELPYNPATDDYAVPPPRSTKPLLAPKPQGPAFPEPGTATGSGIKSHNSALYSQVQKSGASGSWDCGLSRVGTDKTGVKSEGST
UniProt Q9BXS6: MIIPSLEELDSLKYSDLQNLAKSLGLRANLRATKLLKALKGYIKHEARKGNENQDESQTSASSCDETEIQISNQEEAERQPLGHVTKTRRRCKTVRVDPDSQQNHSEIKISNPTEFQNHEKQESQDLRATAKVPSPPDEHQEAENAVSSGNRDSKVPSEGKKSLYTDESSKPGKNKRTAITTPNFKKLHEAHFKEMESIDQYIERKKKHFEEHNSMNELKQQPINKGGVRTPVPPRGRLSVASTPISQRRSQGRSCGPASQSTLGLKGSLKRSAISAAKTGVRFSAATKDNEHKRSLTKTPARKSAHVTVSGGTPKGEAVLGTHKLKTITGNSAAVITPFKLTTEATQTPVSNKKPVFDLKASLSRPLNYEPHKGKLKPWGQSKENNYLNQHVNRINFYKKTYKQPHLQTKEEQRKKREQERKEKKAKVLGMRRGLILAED
UniProt Q9BQ04: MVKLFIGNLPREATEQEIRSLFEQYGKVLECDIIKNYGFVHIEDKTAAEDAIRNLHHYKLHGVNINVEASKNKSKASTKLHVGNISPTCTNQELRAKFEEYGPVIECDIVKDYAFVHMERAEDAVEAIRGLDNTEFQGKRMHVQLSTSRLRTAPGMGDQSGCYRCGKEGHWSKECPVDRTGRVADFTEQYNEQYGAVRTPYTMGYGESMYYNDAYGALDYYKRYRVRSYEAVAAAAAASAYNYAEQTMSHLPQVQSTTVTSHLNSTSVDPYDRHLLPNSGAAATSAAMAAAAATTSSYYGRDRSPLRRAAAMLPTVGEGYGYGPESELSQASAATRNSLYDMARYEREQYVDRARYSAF
UniProt Q99460, whole entry: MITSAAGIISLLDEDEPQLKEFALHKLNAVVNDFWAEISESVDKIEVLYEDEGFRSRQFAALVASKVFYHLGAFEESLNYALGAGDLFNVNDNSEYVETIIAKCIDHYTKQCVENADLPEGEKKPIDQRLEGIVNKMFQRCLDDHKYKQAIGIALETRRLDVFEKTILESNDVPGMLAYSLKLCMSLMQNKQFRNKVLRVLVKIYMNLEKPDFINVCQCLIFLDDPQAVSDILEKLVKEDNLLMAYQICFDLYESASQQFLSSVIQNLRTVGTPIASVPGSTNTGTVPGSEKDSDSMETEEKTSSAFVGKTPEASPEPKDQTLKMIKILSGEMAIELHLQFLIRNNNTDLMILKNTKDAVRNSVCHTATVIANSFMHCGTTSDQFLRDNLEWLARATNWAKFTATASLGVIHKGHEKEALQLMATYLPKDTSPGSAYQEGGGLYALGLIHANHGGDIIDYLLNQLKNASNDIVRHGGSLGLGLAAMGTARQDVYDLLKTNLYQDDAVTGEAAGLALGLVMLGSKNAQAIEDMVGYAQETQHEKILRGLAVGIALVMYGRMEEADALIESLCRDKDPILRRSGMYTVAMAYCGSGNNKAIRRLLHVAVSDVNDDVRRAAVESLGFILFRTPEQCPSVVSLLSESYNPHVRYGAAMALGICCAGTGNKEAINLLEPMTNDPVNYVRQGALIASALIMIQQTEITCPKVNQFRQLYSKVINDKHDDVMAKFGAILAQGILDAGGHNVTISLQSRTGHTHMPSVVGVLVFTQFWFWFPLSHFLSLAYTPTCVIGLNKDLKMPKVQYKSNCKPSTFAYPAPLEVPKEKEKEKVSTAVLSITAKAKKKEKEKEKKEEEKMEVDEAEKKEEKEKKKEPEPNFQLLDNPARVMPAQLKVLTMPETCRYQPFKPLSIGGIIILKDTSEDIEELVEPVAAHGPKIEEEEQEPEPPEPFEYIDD
UniProt Q9BSD7: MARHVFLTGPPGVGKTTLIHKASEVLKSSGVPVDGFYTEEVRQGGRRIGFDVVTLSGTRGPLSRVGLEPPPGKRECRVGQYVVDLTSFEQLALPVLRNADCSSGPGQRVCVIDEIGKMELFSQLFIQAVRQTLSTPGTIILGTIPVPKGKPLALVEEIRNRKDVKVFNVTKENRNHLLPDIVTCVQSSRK
UniProt Q9BWT3: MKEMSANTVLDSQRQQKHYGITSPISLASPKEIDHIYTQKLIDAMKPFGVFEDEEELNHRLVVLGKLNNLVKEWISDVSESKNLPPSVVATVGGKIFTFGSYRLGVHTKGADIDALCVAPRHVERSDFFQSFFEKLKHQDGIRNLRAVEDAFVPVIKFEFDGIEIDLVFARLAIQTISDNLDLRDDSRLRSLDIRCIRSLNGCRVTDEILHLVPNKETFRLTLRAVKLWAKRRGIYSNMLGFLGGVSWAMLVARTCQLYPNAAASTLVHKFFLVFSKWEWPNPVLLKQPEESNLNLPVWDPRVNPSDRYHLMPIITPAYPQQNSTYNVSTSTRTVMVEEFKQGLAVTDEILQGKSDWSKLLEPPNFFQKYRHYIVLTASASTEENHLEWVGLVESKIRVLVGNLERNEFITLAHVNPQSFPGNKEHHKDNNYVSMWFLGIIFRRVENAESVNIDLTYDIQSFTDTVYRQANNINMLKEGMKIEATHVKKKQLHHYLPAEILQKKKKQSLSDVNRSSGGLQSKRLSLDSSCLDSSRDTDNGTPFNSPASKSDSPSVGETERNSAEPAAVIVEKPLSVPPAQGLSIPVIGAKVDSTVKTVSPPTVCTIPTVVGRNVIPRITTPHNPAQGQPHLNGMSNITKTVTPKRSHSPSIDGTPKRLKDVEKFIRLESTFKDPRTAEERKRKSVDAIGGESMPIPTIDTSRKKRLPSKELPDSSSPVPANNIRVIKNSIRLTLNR
UniProt Q99805: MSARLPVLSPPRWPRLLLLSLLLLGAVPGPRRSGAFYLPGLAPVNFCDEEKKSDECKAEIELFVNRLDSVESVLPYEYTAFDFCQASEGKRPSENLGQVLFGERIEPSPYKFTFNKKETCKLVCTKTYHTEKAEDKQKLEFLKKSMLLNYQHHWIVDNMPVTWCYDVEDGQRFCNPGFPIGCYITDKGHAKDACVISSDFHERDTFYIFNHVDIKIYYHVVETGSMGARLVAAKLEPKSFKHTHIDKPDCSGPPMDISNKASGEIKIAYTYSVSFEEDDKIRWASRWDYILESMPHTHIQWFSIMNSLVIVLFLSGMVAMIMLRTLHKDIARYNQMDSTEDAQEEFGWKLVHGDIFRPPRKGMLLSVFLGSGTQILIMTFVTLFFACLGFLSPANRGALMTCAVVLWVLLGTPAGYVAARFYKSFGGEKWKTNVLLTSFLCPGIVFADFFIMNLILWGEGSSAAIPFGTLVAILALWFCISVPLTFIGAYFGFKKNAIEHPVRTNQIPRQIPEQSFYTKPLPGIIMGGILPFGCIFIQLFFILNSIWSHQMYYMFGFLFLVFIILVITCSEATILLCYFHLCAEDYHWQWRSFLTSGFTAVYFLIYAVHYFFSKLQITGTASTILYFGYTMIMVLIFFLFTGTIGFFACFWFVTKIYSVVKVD
UniProt Q9BV86: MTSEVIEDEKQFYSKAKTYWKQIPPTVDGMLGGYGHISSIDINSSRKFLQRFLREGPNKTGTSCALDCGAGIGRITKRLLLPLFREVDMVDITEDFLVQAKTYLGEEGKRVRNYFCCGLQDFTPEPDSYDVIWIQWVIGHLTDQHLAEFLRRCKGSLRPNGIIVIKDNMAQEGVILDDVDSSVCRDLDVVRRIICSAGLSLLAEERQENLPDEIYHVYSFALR
UniProt Q99622: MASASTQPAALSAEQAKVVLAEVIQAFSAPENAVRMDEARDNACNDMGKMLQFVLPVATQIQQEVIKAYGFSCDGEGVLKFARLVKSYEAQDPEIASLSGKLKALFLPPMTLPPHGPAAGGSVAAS
UniProt Q9BRS2: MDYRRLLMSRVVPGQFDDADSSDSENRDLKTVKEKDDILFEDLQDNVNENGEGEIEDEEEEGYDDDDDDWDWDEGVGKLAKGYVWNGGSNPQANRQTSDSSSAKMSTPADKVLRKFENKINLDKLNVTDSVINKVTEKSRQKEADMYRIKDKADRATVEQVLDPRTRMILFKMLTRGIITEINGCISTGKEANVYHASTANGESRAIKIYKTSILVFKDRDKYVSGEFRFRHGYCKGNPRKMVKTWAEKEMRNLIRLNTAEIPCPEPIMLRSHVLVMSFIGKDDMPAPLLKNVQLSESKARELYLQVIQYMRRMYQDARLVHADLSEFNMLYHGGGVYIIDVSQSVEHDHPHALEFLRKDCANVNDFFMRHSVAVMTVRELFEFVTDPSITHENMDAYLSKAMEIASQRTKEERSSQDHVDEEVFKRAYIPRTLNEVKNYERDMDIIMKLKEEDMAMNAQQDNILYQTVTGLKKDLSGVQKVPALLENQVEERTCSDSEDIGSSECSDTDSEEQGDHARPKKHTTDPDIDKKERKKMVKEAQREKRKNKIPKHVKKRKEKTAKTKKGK

Target	NP40-soluble protein abundance (concentration: 1mM)	NP40-soluble protein abundance (concentration: 2mM)	NP40-soluble protein abundance (concentration: 4mM)	NP40-soluble protein abundance (concentration: 6mM)	NP40-soluble protein abundance (concentration: 8mM)	NP40-soluble protein abundance (concentration: 10mM)
GPATCH1 (UniProt Q9BRR8)	0.957 ± 0.069	0.99 ± 0.13	1.08 ± 0.024	1.19 ± 0.16	1.07 ± 0.17	1.17 ± 0.067
UniProt Q9BQP7	1.02 ± 0.013	0.99077 ± 0.00014	1.01 ± 0.011	1.02 ± 0.03	0.967 ± 0.01	0.96 ± 0.014
UniProt Q9BSB4	1.01 ± 0.17	1.02 ± 0.091	1.03 ± 0.11	0.933 ± 0.15	1.06 ± 0.058	1.04 ± 0.095
UniProt Q9BW83 and related entries	1.01 ± 0.074	1 ± 0.094	1.01 ± 0.083	0.972 ± 0.093	0.967 ± 0.11	0.955 ± 0.076
ITPA (UniProt Q9BY32)	1.04 ± 0.079	1.03 ± 0.035	1.03 ± 0.062	1.04 ± 0.073	0.975 ± 0.059	0.983 ± 0.069
UniProt Q9BU61	0.995 ± 0.093	0.991 ± 0.051	0.943 ± 0.078	0.894 ± 0.079	0.966 ± 0.035	0.979 ± 0.034
FSD1 (UniProt Q9BTV5)	1.01 ± 0.078	1.02 ± 0.049	1.03 ± 0.086	1.02 ± 0.093	1.02 ± 0.07	1 ± 0.031
ADI1 (UniProt Q9BV57)	0.975 ± 0.047	0.977 ± 0.062	0.937 ± 0.055	0.936 ± 0.08	0.948 ± 0.087	0.933 ± 0.065
PTDSS2 (UniProt Q9BVG9)	0.981 ± 0.15	0.94 ± 0.1	0.964 ± 0.12	0.741 ± 0.069	0.899 ± 0.089	0.877 ± 0.13
TMED9 (UniProt Q9BVK6)	1.02 ± 0.12	1 ± 0.077	0.995 ± 0.072	0.964 ± 0.089	0.995 ± 0.077	0.959 ± 0.056
UniProt Q99766	1.03 ± 0.071	0.98 ± 0.049	0.999 ± 0.036	0.982 ± 0.06	0.907 ± 0.017	0.946 ± 0.045
MND1 (UniProt Q9BWT6)	0.948 ± 0.083	0.94 ± 0.041	0.947 ± 0.051	0.939 ± 0.043	0.921 ± 0.016	0.87 ± 0.091
UniProt Q96TA1 and related entries	0.989 ± 0.022	0.99 ± 0.018	0.961 ± 0.02	0.963 ± 0.011	0.987 ± 0.015	0.974 ± 0.025
MRPL32 (UniProt Q9BYC8)	1.05 ± 0.14	0.917 ± 0.14	1.01 ± 0.16	0.937 ± 0.3	1.02 ± 0.24	0.904 ± 0.21
UniProt Q99638 and related entries	1.06 ± 0.085	0.965 ± 0.23	1.06 ± 0.063	1.08 ± 0.069	1.03 ± 0.24	0.997 ± 0.09
GNB1L (UniProt Q9BYB4)	1.07 ± 0.031	1.06 ± 0.07	1.08 ± 0.049	1.03 ± 0.093	1.05 ± 0.038	1.03 ± 0.05
ACBD6 (UniProt Q9BR61)	0.978 ± 0.02	1.01 ± 0.06	1.01 ± 0.07	0.999 ± 0.033	0.982 ± 0.091	0.93 ± 0.048
UniProt Q9BUL5 and related entries	0.929 ± 0.02	0.924 ± 0.022	0.919 ± 0.031	0.956 ± 0.022	0.908 ± 0.029	0.933 ± 0.035
UniProt Q9BXW7 and related entries	0.965 ± 0.084	0.937 ± 0.034	0.927 ± 0.046	0.913 ± 0.067	0.947 ± 0.04	0.934 ± 0.022
MRI1 (UniProt Q9BV20)	0.982 ± 0.039	0.992 ± 0.05	0.986 ± 0.023	0.964 ± 0.059	0.956 ± 0.029	0.967 ± 0.06
DOK1 (UniProt Q99704)	0.99 ± 0.051	0.985 ± 0.043	1.08 ± 0.16	1.03 ± 0.13	1.02 ± 0.099	1 ± 0.089
UniProt Q9BXS6 and related entries	0.973 ± 0.063	1.01 ± 0.014	1.04 ± 0.053	1.04 ± 0.044	1.05 ± 0.049	1.04 ± 0.032
MAK16 (UniProt Q9BXY0)	1 ± 0.064	1.07 ± 0.09	1.06 ± 0.099	1.15 ± 0.13	1.07 ± 0.046	1.18 ± 0.099

Reformatted field by field: part of the list above.
UniProt Q9BW83 and related entries
  NP40-soluble protein abundance (concentration: 1mM): 1.01 ± 0.074
  NP40-soluble protein abundance (concentration: 2mM): 1 ± 0.094
  NP40-soluble protein abundance (concentration: 4mM): 1.01 ± 0.083
  NP40-soluble protein abundance (concentration: 6mM): 0.972 ± 0.093
  NP40-soluble protein abundance (concentration: 8mM): 0.967 ± 0.11
  NP40-soluble protein abundance (concentration: 10mM): 0.955 ± 0.076
ADI1 (UniProt Q9BV57)
  NP40-soluble protein abundance (concentration: 1mM): 0.975 ± 0.047
  NP40-soluble protein abundance (concentration: 2mM): 0.977 ± 0.062
  NP40-soluble protein abundance (concentration: 4mM): 0.937 ± 0.055
  NP40-soluble protein abundance (concentration: 6mM): 0.936 ± 0.08
  NP40-soluble protein abundance (concentration: 8mM): 0.948 ± 0.087
  NP40-soluble protein abundance (concentration: 10mM): 0.933 ± 0.065

More records

Target	NP40-soluble protein abundance (concentration: 1mM)	NP40-soluble protein abundance (concentration: 2mM)	NP40-soluble protein abundance (concentration: 4mM)	NP40-soluble protein abundance (concentration: 6mM)	NP40-soluble protein abundance (concentration: 8mM)	NP40-soluble protein abundance (concentration: 10mM)
CNPY3 (UniProt Q9BT09)	0.907 ± 0.056	0.892 ± 0.031	0.854 ± 0.019	0.922 ± 0.021	0.857 ± 0.041	0.815 ± 0.063
MACROD1 (UniProt Q9BQ69)	0.994 ± 0.074	0.93 ± 0.056	0.903 ± 0.12	0.902 ± 0.085	0.889 ± 0.072	0.866 ± 0.06
UniProt Q9BVC4 and related entries	0.958 ± 0.028	0.981 ± 0.035	1 ± 0.067	0.938 ± 0.069	0.982 ± 0.073	1 ± 0.079
RBM4B (UniProt Q9BQ04)	1.12 ± 0.14	1.06 ± 0.072	1.09 ± 0.088	1.02 ± 0.035	1 ± 0.035	1.07 ± 0.061
UniProt Q99460 and related entries	0.929 ± 0.033	0.882 ± 0.026	0.849 ± 0.025	0.867 ± 0.084	0.878 ± 0.059	0.869 ± 0.06
UniProt Q9BSD7	1.07 ± 0.04	1.06 ± 0.016	1.03 ± 0.034	1.07 ± 0.046	1.04 ± 0.025	1.04 ± 0.034
NUP85 (UniProt Q9BW27)	1.03 ± 0.12	1.01 ± 0.091	1.03 ± 0.078	0.949 ± 0.13	1.05 ± 0.04	1.1 ± 0.087
PAPOLG (UniProt Q9BWT3)	1.125 ± 0.011	1.154 ± 0.011	1.25 ± 0.089	1.3 ± 0.065	1.28 ± 0.076	1.26 ± 0.015
ARPC5L (UniProt Q9BPX5)	0.907 ± 0.08	0.963 ± 0.066	0.982 ± 0.015	0.948 ± 0.04	0.943 ± 0.024	0.894 ± 0.042
TM9SF2 (UniProt Q99805)	1.07 ± 0.16	1.04 ± 0.087	1.06 ± 0.13	0.96 ± 0.12	1.06 ± 0.085	1 ± 0.033
UniProt Q9BV86	0.969 ± 0.063	0.978 ± 0.071	0.967 ± 0.072	0.941 ± 0.12	0.965 ± 0.092	0.923 ± 0.045
UniProt Q9BRT2 and related entries	0.957 ± 0.074	0.95 ± 0.091	0.964 ± 0.06	1 ± 0.044	1 ± 0.012	0.902 ± 0.11
UniProt Q99490-2|Q99490	0.919 ± 0.029	0.907 ± 0.025	0.899 ± 0.032	0.865 ± 0.05	0.885 ± 0.02	0.897 ± 0.02
UniProt Q9BUH6	1.04 ± 0.066	1.06 ± 0.03	1.08 ± 0.015	1.11 ± 0.014	1.05 ± 0.021	1.04 ± 0.06
UniProt Q99622 and related entries	0.872 ± 0.19	0.865 ± 0.2	0.889 ± 0.15	0.917 ± 0.18	0.881 ± 0.08	0.791 ± 0.18
HIRIP3 (UniProt Q9BW71)	0.917 ± 0.067	0.931 ± 0.045	0.913 ± 0.037	0.951 ± 0.064	0.908 ± 0.021	0.929 ± 0.029
UniProt Q9BY43 and related entries	1.04 ± 0.011	1.034 ± 0.0097	1.02 ± 0.11	0.979 ± 0.12	1.02 ± 0.045	1.01 ± 0.058
MRPL1 (UniProt Q9BYD6)	0.957 ± 0.052	0.939 ± 0.05	0.902 ± 0.082	0.88 ± 0.077	0.901 ± 0.098	0.875 ± 0.079
TRIM56 (UniProt Q9BRZ2)	1.08 ± 0.065	1.06 ± 0.086	1.18 ± 0.078	1.2 ± 0.11	1.29 ± 0.08	1.37 ± 0.095
RIOK1 (UniProt Q9BRS2)	1.07 ± 0.1	1.13 ± 0.069	1.16 ± 0.099	1.2 ± 0.15	1.19 ± 0.12	1.26 ± 0.089
UniProt Q9BX67	0.88 ± 0.038	0.939 ± 0.034	0.923 ± 0.016	0.897 ± 0.087	0.891 ± 0.054	0.934 ± 0.041
UniProt Q9BUE6 and related entries	0.94 ± 0.018	0.9988 ± 0.0037	1.03 ± 0.064	1.02 ± 0.052	0.959 ± 0.037	0.984 ± 0.059

Source: the supplement of paper PMC6411743
